Test results: patent US10350302B2, “Thymidine kinase diagnostic assay for gene therapy applications” (GenVivo, Inc., priority 2013, dated 2019)
At least one compound was matched to its structure with a doubt left.

Assay: [18F]FHBG whole body biodistribution by PET (FIG. 2)
Format: in vivo
Conditions: human, depending upon clearance rate in each subject
Text: FIG. 2 is whole body coronal images of [^18F]FHBG biodistribution in a healthy human subject at four distinct time periods after 4.53 mCi i.v. injection of the [^18F]FHBG.
In some embodiments, the clearance pattern in a subject determines the length of time delay for measuring background and determining, for example, [^18F]FHBG imaging activity. […] Accordingly, depending upon the organ and subject individual, some time may be required for background levels to decrease in order to measure HSV-TK gene expression. […] In these organ systems, a sufficient threshold for gene therapy suitability may be, for example, at least above 1.0 SUV, at least above 1.5 SUV, at least above 2.0 SUV, at least above 2.5 SUV, at least above 3.0 SUV, at least above 3.5 SUV or at least above 4.0 SUV.
In contrast, some delay may be needed in order to image signals above background levels in, for example, the liver and kidneys. See Yaghoubi et al. Nat. Protocols at vol. 1, p. 3073. […]

Nc1nc2c(ncn2CCC(CO)C[18F])c(=O)[nH]1 (stereo not shown) [[^18F]FHBG, 9-[4-[^18F]Fluoro-3-(hydroxymethyl)butyl]guanine]
time until [18F]FHBG signal levels in the liver have decreased to background: approximately 1 to 1½ hours
